Assay results from the supplement of paper PMC8728848.
The other results are listed elsewhere or left out.

Columns and labels:
Test in all cases: glycan array binding signal (z-score within array); higher = stronger binding
Settings in all cases: glycan notation: IUPAC condensed, linker removed
[1] = biological target: GalNAc(b1-4)GlcNAc(b1-2)Man(a1-3)[GalNAc(b1-4)GlcNAc(b1-2)Man(a1-6)]Man(b1-4)GlcNAc(b1-4)GlcNAc
Procedure, shortened: (§1)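 The binding signal is a Z-score computed within each array. Data were drawn from 3228 arrays in the Consortium for Functional Glycomics database, restricted to those with a known protein sequence. Scores were averaged over arrays of the same protein sequence at different concentrations or buffers, and over linkers, and negative values can be taken as non-binding.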

[2] = biological target: GalNAc(b1-4)GlcNAc(b1-3)GalNAc(b1-4)GlcNAc
Procedure, shortened: as §1

GalNAc(b1-4)GlcNAc6S = biological target: GalNAc(b1-4)GlcNAc6S
Procedure, shortened: as §1

GalNAc(b1-6)GalNAc = biological target: GalNAc(b1-6)GalNAc
Procedure, shortened: as §1

GalNAc3S(b1-4)GlcNAc = biological target: GalNAc3S(b1-4)GlcNAc
Procedure, shortened: as §1

GalNAc3S(b1-4)GlcNAc3S = biological target: GalNAc3S(b1-4)GlcNAc3S
Procedure, shortened: as §1

[3] = biological target: GalNAc3S(b1-4)[Fuc(a1-3)]GlcNAc
Procedure, shortened: as §1

GalNAc4S6S(b1-4)GlcNAc = biological target: GalNAc4S6S(b1-4)GlcNAc
Procedure, shortened: as §1

GalNAc6S(b1-4)GlcNAc = biological target: GalNAc6S(b1-4)GlcNAc
Procedure, shortened: as §1

Glc(a1-4)Glc = biological target: Glc(a1-4)Glc
Procedure, shortened: as §1

[4] = biological target: Glc(a1-4)Glc(a1-4)Glc(a1-4)Glc
Procedure, shortened: as §1

Glc(a1-6)Glc(a1-6)Glc = biological target: Glc(a1-6)Glc(a1-6)Glc
Procedure, shortened: as §1

[5] = biological target: Glc(a1-6)Glc(a1-6)Glc(a1-6)Glc
Procedure, shortened: as §1

Glc(b1-4)Glc = biological target: Glc(b1-4)Glc
Procedure, shortened: as §1

Glc(b1-6)Glc = biological target: Glc(b1-6)Glc
Procedure, shortened: as §1

GlcA(b1-3)Gal = biological target: GlcA(b1-3)Gal
Procedure, shortened: as §1

GlcA(b1-3)GlcNAc = biological target: GlcA(b1-3)GlcNAc
Procedure, shortened: as §1

GlcA(b1-6)Gal = biological target: GlcA(b1-6)Gal
Procedure, shortened: as §1

[6] = biological target: GlcA3S(b1-3)Gal(b1-4)GlcNAc(b1-2)Man
Procedure, shortened: as §1

[7] = biological target: GlcA3S(b1-3)Gal(b1-4)GlcNAc(b1-3)Gal(b1-4)Glc
Procedure, shortened: as §1

[8] = biological target: GlcNAc(a1-3)Gal(b1-4)GlcNAc
Procedure, shortened: as §1

[9] = biological target: GlcNAc(a1-4)Gal(b1-3)GlcNAc
Procedure, shortened: as §1

[10] = biological target: GlcNAc(a1-4)Gal(b1-4)GalNAc
Procedure, shortened: as §1

[11] = biological target: GlcNAc(a1-4)Gal(b1-4)GlcNAc
Procedure, shortened: as §1

[12] = biological target: GlcNAc(a1-4)Gal(b1-4)GlcNAc(b1-3)Gal(b1-4)Glc
Procedure, shortened: as §1

[13] = biological target: GlcNAc(a1-4)Gal(b1-4)GlcNAc(b1-3)Gal(b1-4)GlcNAc
Procedure, shortened: as §1

[14] = biological target: GlcNAc(a1-4)Gal(b1-4)GlcNAc(b1-3)Gal(b1-4)GlcNAc(b1-3)Gal(b1-4)GlcNAc
Procedure, shortened: as §1

[15] = biological target: GlcNAc(a1-4)Gal(b1-4)GlcNAc(b1-3)Gal(b1-4)[Fuc(a1-3)]GlcNAc(b1-3)Gal(b1-4)[Fuc(a1-3)]GlcNAc
Procedure, shortened: as §1

[16] = biological target: GlcNAc(a1-6)Gal(b1-4)GlcNAc
Procedure, shortened: as §1

[17] = biological target: GlcNAc(b1-2)Gal(b1-3)GalNAc
Procedure, shortened: as §1

[18] = biological target: GlcNAc(b1-2)Man(a1-3)[GlcNAc(b1-2)Man(a1-6)]Man(b1-4)GlcNAc(b1-4)GlcNAc
Procedure, shortened: as §1

[19] = biological target: GlcNAc(b1-2)Man(a1-3)[GlcNAc(b1-2)Man(a1-6)]Man(b1-4)GlcNAc(b1-4)[Fuc(a1-6)]GlcNAc
Procedure, shortened: as §1

[20] = biological target: GlcNAc(b1-2)Man(a1-3)[GlcNAc(b1-4)][GlcNAc(b1-2)Man(a1-6)]Man(b1-4)GlcNAc(b1-4)GlcNAc
Procedure, shortened: as §1

[21] = biological target: GlcNAc(b1-2)Man(a1-3)[GlcNAc(b1-4)][GlcNAc(b1-2)Man(a1-6)]Man(b1-4)GlcNAc(b1-4)[Fuc(a1-6)]GlcNAc
Procedure, shortened: as §1

[22] = biological target: GlcNAc(b1-2)[GlcNAc(b1-4)]Man(a1-3)[GlcNAc(b1-2)Man(a1-6)]Man(b1-4)GlcNAc(b1-4)GlcNAc
Procedure, shortened: as §1

[23] = biological target: GlcNAc(b1-2)[GlcNAc(b1-4)]Man(a1-3)[GlcNAc(b1-4)][GlcNAc(b1-2)Man(a1-6)]Man(b1-4)GlcNAc(b1-4)GlcNAc
Procedure, shortened: as §1

[24] = biological target: GlcNAc(b1-2)[GlcNAc(b1-4)]Man(a1-3)[GlcNAc(b1-4)][GlcNAc(b1-2)[GlcNAc(b1-6)]Man(a1-6)]Man(b1-4)GlcNAc(b1-4)GlcNAc
Procedure, shortened: as §1

B1: FliC (Clostridium difficile) (protein)
chain: MRVNTNVSALIANNQMGRNVNGQSKSMEKLSSGVRIKRAADDAAGLAISEKMRAQIKGLDQAGRNVQDGISVVQTAEGSLEETGNILQRMRTLSLQSANEINNTEEREKIADELTQLKDEIERISSSTEFNGKKLLDGTSSTIRLQVGASYGTNVSGTSNNNNEIKIQLVNTASIMASAGITTASIGSMKAGGTTGTDAAKTMVSSLDAALKSLNSSRAKLGAQQNRLESTQNNLNNTLENVTAAESRIRDTDVASEMVNLSKMNILVQASQSMLAQANQQPQGVLQLLG
B1 was tested, and the “glycan array binding signal (z-score)” value [1] was -0.514, the “glycan array binding signal (z-score)” value [2] was -0.579 and the “glycan array binding signal (z-score)” value (GalNAc(b1-4)GlcNAc6S) was -0.365. For the same binder, the “glycan array binding signal (z-score)” value (GalNAc(b1-6)GalNAc) was -0.938, the “glycan array binding signal (z-score)” value (GalNAc3S(b1-4)GlcNAc) was -0.792 and the “glycan array binding signal (z-score)” value (GalNAc3S(b1-4)GlcNAc3S) was -0.169. The “glycan array binding signal (z-score)” value [3] was -0.621, the “glycan array binding signal (z-score)” value (GalNAc4S6S(b1-4)GlcNAc) was 0.536 and the “glycan array binding signal (z-score)” value (GalNAc6S(b1-4)GlcNAc) was 0.047. For the same binder, the “glycan array binding signal (z-score)” value (Glc(a1-4)Glc) was 0.093, the “glycan array binding signal (z-score)” value [4] was -1.09 and the “glycan array binding signal (z-score)” value (Glc(a1-6)Glc(a1-6)Glc) was 0.058. For the same binder, the “glycan array binding signal (z-score)” value [5] was 0.155, the “glycan array binding signal (z-score)” value (Glc(b1-4)Glc) was 0.15 and the “glycan array binding signal (z-score)” value (Glc(b1-6)Glc) was 1.72. For the same binder, the “glycan array binding signal (z-score)” value (GlcA(b1-3)Gal) was 0.217, the “glycan array binding signal (z-score)” value (GlcA(b1-3)GlcNAc) was -0.37 and the “glycan array binding signal (z-score)” value (GlcA(b1-6)Gal) was 0.713. For the same binder, the “glycan array binding signal (z-score)” value [6] was -0.662, the “glycan array binding signal (z-score)” value [7] was -0.763 and the “glycan array binding signal (z-score)” value [8] was 0.625. For the same binder, the “glycan array binding signal (z-score)” value [9] was 0.947, the “glycan array binding signal (z-score)” value [10] was -0.008 and the “glycan array binding signal (z-score)” value [11] was 0.327. The “glycan array binding signal (z-score)” value [12] was -0.393, the “glycan array binding signal (z-score)” value [13] was -0.542 and the “glycan array binding signal (z-score)” value [14] was -0.392. The “glycan array binding signal (z-score)” value [15] was 0.855, the “glycan array binding signal (z-score)” value [16] was -0.495 and the “glycan array binding signal (z-score)” value [17] was -0.219. For the same binder, the “glycan array binding signal (z-score)” value [18] was 0.05, the “glycan array binding signal (z-score)” value [19] was 0.458 and the “glycan array binding signal (z-score)” value [20] was -0.661. For the same binder, the “glycan array binding signal (z-score)” value [21] was -0.206, the “glycan array binding signal (z-score)” value [22] was -0.255 and the “glycan array binding signal (z-score)” value [23] was 0.172. The “glycan array binding signal (z-score)” value [24] was -0.615.
